Data as given in PubChem BioAssay AID493246 (Drosophila RNAi Screening Center, 2011).
Screen: 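Identify essential fly genes by loss of cell viability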 (primary screen). System: Drosophila Kc and S2R+ cells. Reagents: long dsRNA against Drosophila genes. Measured: 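Cell number per well after knock-down, printed as raw plate values; calls were based on per-plate z-scores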. Scale: Kc cell number and S2R+ cell number: higher = more cells remaining. Hit rule: 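Active when the per-plate z-score of cell number is 3 or more in the direction of fewer cells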.
The deposit covers about 21,000 reagents; this is an unselected part of those with a known target gene and a result. Over the whole deposit, 429 (2%) were called active. 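Values are raw and not normalised between plates; calls rest on per-plate z-scores that were not deposited.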 Reagent sequences are not shown. Not given: the amount of reagent, the time to read-out.

Silencing of CG8858 [SID104187082] resulted in: Kc cell number, rep 1 = 1.84e6; Kc cell number, rep 2 = 1.78e6; S2R+ cell number, rep 1 = 1.44e6; S2R+ cell number, rep 2 = 1.61e6; inactive. Knock-down of laf (labial associated factor) [SID104192038] came out at: Kc cell number, rep 1 = 1.78e6; Kc cell number, rep 2 = 2.10e6; S2R+ cell number, rep 1 = 1.25e6; S2R+ cell number, rep 2 = 1.33e6; inactive. With knock-down of CG16787 [SID104184074], the screen gave Kc cell number, rep 1 = 1.67e6; Kc cell number, rep 2 = 1.68e6; S2R+ cell number, rep 1 = 1.37e6; S2R+ cell number, rep 2 = 1.41e6; inactive. Knock-down of Past1 (Putative Achaete Scute Target 1) [SID104196576] came out at: Kc cell number, rep 1 = 1.79e6; Kc cell number, rep 2 = 1.85e6; S2R+ cell number, rep 1 = 1.39e6; S2R+ cell number, rep 2 = 1.55e6; inactive. Against Grip (Glutamate receptor interacting protein) [SID104197732] the deposit lists Kc cell number, rep 1 = 6.60e5; Kc cell number, rep 2 = 8.63e5; S2R+ cell number, rep 1 = 6.91e5; S2R+ cell number, rep 2 = 8.01e5; active. After knock-down of Grip (Glutamate receptor interacting protein) [SID104198187] the results were Kc cell number, rep 1 = 1.51e6; Kc cell number, rep 2 = 1.48e6; S2R+ cell number, rep 1 = 1.02e6; S2R+ cell number, rep 2 = 1.17e6; inactive.

With knock-down of CG8611 [SID104199132] the results were Kc cell number, rep 1 = 1.36e6; Kc cell number, rep 2 = 1.44e6; S2R+ cell number, rep 1 = 9.96e5; S2R+ cell number, rep 2 = 1.12e6; inactive. With knock-down of Odc1 (Ornithine decarboxylase 1) [SID104187274] the results were Kc cell number, rep 1 = 1.47e6; Kc cell number, rep 2 = 1.40e6; S2R+ cell number, rep 1 = 1.15e6; S2R+ cell number, rep 2 = 1.18e6; inactive. Against GstO3 (Glutathione S transferase O3) [SID104190502], the values are Kc cell number, rep 1 = 1.51e6; Kc cell number, rep 2 = 1.45e6; S2R+ cell number, rep 1 = 1.14e6; S2R+ cell number, rep 2 = 1.21e6; inactive. With knock-down of hang (hangover) [SID104199693] the results were Kc cell number, rep 1 = 3.41e5; S2R+ cell number, rep 1 = 5.99e5; inactive. Against hang (hangover) [SID104199694] the deposit lists Kc cell number, rep 1 = 1.34e6; Kc cell number, rep 2 = 1.38e6; S2R+ cell number, rep 1 = 6.82e5; S2R+ cell number, rep 2 = 7.55e5; active. For NHP2 [SID104191021] the deposit lists Kc cell number, rep 1 = 1.28e6; Kc cell number, rep 2 = 1.45e6; S2R+ cell number, rep 1 = 1.20e6; S2R+ cell number, rep 2 = 1.32e6; inactive.

For CG14483 [SID104186247], the entry reads Kc cell number, rep 1 = 1.68e6; Kc cell number, rep 2 = 1.78e6; S2R+ cell number, rep 1 = 1.18e6; S2R+ cell number, rep 2 = 1.36e6; inactive. For CG33257 [SID104189709] the deposit lists Kc cell number, rep 1 = 1.26e6; Kc cell number, rep 2 = 1.51e6; S2R+ cell number, rep 1 = 1.25e6; S2R+ cell number, rep 2 = 1.38e6; inactive. After knock-down of CG16815 [SID104182313], the record shows Kc cell number, rep 1 = 1.63e6; Kc cell number, rep 2 = 1.68e6; S2R+ cell number, rep 1 = 1.38e6; S2R+ cell number, rep 2 = 1.52e6; inactive. Knock-down of CG31624 [SID104182409] gave: Kc cell number, rep 1 = 1.66e6; Kc cell number, rep 2 = 1.70e6; S2R+ cell number, rep 1 = 1.03e6; S2R+ cell number, rep 2 = 1.07e6; inactive. After knock-down of SKIP (Shal K[+] channel interacting protein) [SID104194505], the record shows Kc cell number, rep 1 = 1.19e6; Kc cell number, rep 2 = 1.18e6; S2R+ cell number, rep 1 = 1.06e6; S2R+ cell number, rep 2 = 1.16e6; inactive. Knock-down of SKIP (Shal K[+] channel interacting protein) [SID104194506] gave: Kc cell number, rep 1 = 1.23e6; Kc cell number, rep 2 = 1.20e6; S2R+ cell number, rep 1 = 1.06e6; S2R+ cell number, rep 2 = 1.17e6; inactive.

After knock-down of SKIP (Shal K[+] channel interacting protein) [SID104195656], the screen gave Kc cell number, rep 1 = 1.28e6; Kc cell number, rep 2 = 1.43e6; S2R+ cell number, rep 1 = 1.02e6; S2R+ cell number, rep 2 = 1.10e6; inactive. For SKIP (Shal K[+] channel interacting protein) [SID104195987], the entry reads Kc cell number, rep 1 = 1.39e6; Kc cell number, rep 2 = 1.38e6; S2R+ cell number, rep 1 = 1.17e6; S2R+ cell number, rep 2 = 1.29e6; inactive. SKIP (Shal K[+] channel interacting protein) [SID104195988] gave Kc cell number, rep 1 = 1.39e6; Kc cell number, rep 2 = 1.38e6; S2R+ cell number, rep 1 = 1.01e6; S2R+ cell number, rep 2 = 1.16e6; inactive.

Part of the list above, limited to “S2R+ cell number, rep 2”:
SKIP (Shal K[+] channel interacting protein) [SID104194506]: 1.17e6
SKIP (Shal K[+] channel interacting protein) [SID104195656]: 1.10e6
